We go through 64 compounds from PubChem BioAssay AID901 (National Center for Advancing Translational Sciences (NCATS), 2007).

Broadly, the AC50 is the concentration at which the activity in the assay is half-maximal.

Structures are written as SMILES. The list shows a part of the results. The main result of the screen is listed elsewhere. These columns were measured beside it and carry no call. The list favours compounds with an active or inconclusive main result. The note in brackets gives the kind of curve behind each potency; many fits are weak.

A short description of the experiment: qHTS Assay for Identifying the Cell-Membrane Permeable IMPase Inhibitors. As to conditions: CHO-M1 cells, IP1 accumulation, HTRF TR-FRET ratio; measured here: donor channel 620 nm AC50.
For `CCCCOc1ccc(C(=O)Nc2ccc(S(=O)(=O)Nc3nc(C)cc(C)n3)cc2)cc1`, the AC50 was 10 µM [falling, partial curve, poor fit].
The value for `CC(C)(C)C1CCc2c(sc(NC(=O)c3ccco3)c2C(N)=O)C1` (centres undefined) was 1.58 µM [rising, partial curve, poor fit]; that for `O=C(CSc1nnnn1C1CCCC1)N1CCCc2ccccc21` was 31.6 µM [falling, single point].
The figure for `O=C(Nc1ccc(-c2nnc(-c3ccccc3)o2)cc1)C1CCCO1` (centres undefined) is 0.02 µM [falling, full curve]; for `O=C(C1CCN(C2CC(=O)N(c3ccc(F)cc3)C2=O)CC1)N1CCOCC1` (centres undefined) it is 0.631 µM [falling, full curve].
Regarding `CCC(=O)Nc1ccc2c(c1)nc1n2CCSC1`, the AC50 is 0.0631 µM [rising, full curve, poor fit].
The value for `COc1ccc(Cl)cc1NC(=O)CSC1=Nc2ccccc2C2=NC(CCC(=O)NCc3ccc(F)cc3)C(=O)N12` (centres undefined) was 22.4 µM [rising, single point].
The value for `CCc1nc2ccccc2c(C(=O)OCCN2C(=O)c3ccccc3C2=O)c1C` was 0.00316 µM [rising, full curve, poor fit]; that for `N#Cc1cnc(SCC(=O)Nc2ccccc2C(F)(F)F)nc1N` was 1 µM [falling, full curve]; that for `O=C(NCc1cccnc1)c1ccc(COc2cccc3ccccc23)o1` was 25.1 µM [rising, partial curve].
On to `COc1ccc(CN(C(=O)c2ccco2)c2ccc(Br)cc2)cc1OC`, for which the AC50 was 0.794 µM [falling, single point].
The figure for `COc1ccc(N2C(=O)c3ccccc3NC2c2ccc(OC)c(CSc3ccccn3)c2)cc1` (centres undefined) is 31.6 µM [rising, single point]; for `O=C(OCc1nc2ccccc2s1)C1CCN(S(=O)(=O)c2cccs2)CC1` it is 1.26 µM [falling, full curve, poor fit]; for `CCOc1ccc(CCNC(=O)Cn2c(-c3nonc3N)nc3ccccc32)cc1OCC` it is 4.47 µM [rising, single point].
The figure for `CC(C)c1ccc(S(=O)(=O)/N=C2/C=C(Sc3ncn[nH]3)C(=O)c3ccccc32)cc1` is 28.2 µM [falling, partial curve].
The value for `Cc1c(C(=O)Oc2cccc3ccccc23)cnn1-c1ccccc1` was 0.1 µM [falling, full curve, poor fit]; that for `c1ccc2c(-c3ccncc3)c[nH]c2c1` was 0.1 µM [falling, partial curve, poor fit]; that for `CC(C)(C)c1ccc(S(=O)(=O)N2C=CC(C(F)(F)F)=NCC2)cc1` was 0.251 µM [falling, full curve, poor fit].
As to `O=S(=O)(c1ccc2c(c1)N(Cc1ccc(Cl)cc1)C1CCCN21)N1CCOCC1` (centres undefined), the AC50 was 3.16 µM [rising, full curve].
The figure for `Cc1nc2ccccn2c1C(=O)NCc1ccc2c(c1)OCO2` is 0.0316 µM [falling, full curve, poor fit]; for `CCCOC(=O)c1ccc(Oc2c(-c3ccc(O)cc3O)n[nH]c2C)cc1` it is 0.398 µM [falling, full curve, poor fit].
The value for `O=C1C(Cl)=C(NCC2CCCO2)C(=O)N1c1ccccc1` (centres undefined) was 3.98 µM [rising, full curve, poor fit]; that for `COc1ccc(CC(=O)OCc2nnc(C3COc4ccccc4O3)o2)cc1OC` (centres undefined) was 15.8 µM [rising, partial curve].
`CC1=C(C(=O)Nc2cccnc2)C(c2ccc(Cl)cc2)n2nc(-c3ccccc3)nc2N1` (centres undefined): the AC50 was 10 µM [falling, partial curve, poor fit].
The value for `CCCN1C2=C(C(=O)CCC2)C(c2ccc(O)c(Br)c2)C2=C1CCCC2=O` was 1.78 µM [rising, full curve, poor fit].
The value for `CC(C)=C1C2CC2C2C(C(=O)O)C12` (centres undefined) was 25.1 µM [rising, partial curve, poor fit]; that for `Cc1ccc(NC(=O)c2cnn3c(C(F)F)cc(-c4ccccc4)nc23)cc1F` was 0.0316 µM [falling, full curve, poor fit].
The figure for `CCn1c(-c2ccc(F)cc2)cnc1SCC(=O)N1CCc2ccccc21` is 11.2 µM [rising, partial curve, poor fit]; for `COc1ccc(S(=O)(=O)N(CCN2CCOCC2)Cc2cc(OC)ccc2OC)cc1` it is 6.31 µM [rising, single point].
`NC(=O)c1c(NC(=O)CN2C(=O)CCC2=O)sc2c1CCCCC2`: the half-maximal activity concentration (AC50) is 4.47 µM [falling, partial curve, poor fit].
The value for `c1ccc(-c2nnc3sc(CN4CCC5(CC4)OCCO5)cn23)cc1` was 0.316 µM [falling, partial curve]; that for `CCCCC(=O)Nc1nn(CC(C)C)c2nc3ccccc3cc12` was 7.94 µM [falling, full curve, poor fit].
The figure for `COc1ccc(S(=O)(=O)N2CCC(C(=O)N3CCc4ccccc4C3)CC2)cc1C` is 25.1 µM [falling, single point].
Take `COCCCn1c(Cc2csc(Nc3cccc(Cl)c3)n2)nnc1SCC(=O)OC`: the AC50 is 0.794 µM [falling, full curve, poor fit].
In the case of `CCc1ccc(OCc2nc(-c3ccc(OC)c(OC)c3)no2)c(Br)c1`, the AC50 is 10 µM [falling, partial curve, poor fit].
Take `Cc1ccc(NCc2nnc(SCC(=O)N(Cc3ccccc3)C(C)(C)C)o2)c(C)c1`: the concentration at half-maximal activity (AC50) was 0.891 µM [falling, full curve, poor fit].
The figure for `COc1ccc(S(C)(=O)=O)cc1S(C)(=O)=O` is 5.01 µM [rising, single point]; for `CCc1nc(SCC(=O)N2CCC(Cc3ccccc3)CC2)c2c(=O)n(C)c(=O)n(C)c2n1` it is 31.6 µM [rising, single point]; for `O=C(Cn1c(=O)oc2ccccc21)Nc1nc(-c2ccc(Br)cc2)cs1` it is 4.47 µM [rising, single point].
The value for `COC(=O)c1ccc(Oc2ccc3nncn3n2)cc1` was 1.58 µM [falling, full curve, poor fit]; that for `O=C1CC(c2nnc(Cc3ccc(F)cc3Cl)o2)CN1c1ccccc1` (centres undefined) was 5.62 µM [falling, single point]; that for `CCCCCCCCCCCCCCCCCCOC[C@@H](COP(=O)([O-])OCC[N+](C)(C)C)OC` was 0.158 µM [falling, full curve, poor fit].
The figure for `CCOC(=O)/C(C#N)=C\C=C1C=CN(C)C=C1` is 2.51 µM [falling, full curve, poor fit]; for `CCc1cc2c(N[C@@H](C)C(=O)O)ncnc2s1` it is 31.6 µM [rising, single point].
As for `COc1cc(/C=C2/C(=O)NN(c3cccc(C)c3)C2=O)ccc1OC(=O)c1ccco1`, the AC50 was 0.112 µM [rising, full curve, poor fit].
The value for `COc1cc(C)c(Cl)cc1S(=O)(=O)n1cnc(C)c1` was 31.6 µM [rising, single point]; that for `Cc1ccc(-c2nnc(-c3ccccc3)o2)cc1` was 0.0631 µM [rising, full curve, poor fit].
The value for `O=C(Cn1cc(C(=O)c2ccco2)c2ccccc21)NC1CCCC1` was 0.158 µM [falling, full curve, poor fit].
The figure for `c1ccc2c(c1)OCC(c1csc3ncnc(N4CCCCC4)c13)O2` (centres undefined) is 0.00316 µM [rising, full curve, poor fit]; for `O=C(Nc1ccccc1Cl)c1sc2cccc(Cl)c2c1Cl` it is 28.2 µM [rising, single point]; for `O=C(N/N=C/C1CCCCC1)c1cc(Cl)ccc1O` it is 10 µM [falling, single point].
In the case of `Cc1csc(NC(=O)c2sc3nc(-c4cccs4)ccc3c2N)n1`, the concentration at half-maximal activity (AC50) is 15.8 µM [rising, partial curve].
For the compound `COc1ccc(N2CCN(CCCNC(=O)Nc3ccccc3)CC2)cc1`, the AC50 was 2.82 µM [falling, single point].
As for `Cn1c(CN2CCN(c3ccc(Cl)cc3)CC2)nc2ccccc21`, the AC50 was 0.0126 µM [rising, full curve, poor fit].
In the case of `CS(=O)(=O)c1sc2nc(-c3cccs3)cc(-c3ccccc3)c2c1N`, the concentration at half-maximal activity (AC50) was 15.8 µM [rising, partial curve].
The figure for `CCc1ccc2nc(N3CCN(C)CC3)c(C#N)cc2c1` is 0.0501 µM [rising, partial curve, poor fit]; for `CN1CCN(NC(=O)c2ccc(Cl)c([N+](=O)[O-])c2)CC1` it is 20 µM [falling, partial curve, poor fit].
The figure for `Cc1cc(C)c(S(=O)(=O)N2CCC(C(=O)NCc3ccco3)CC2)c(C)c1` is 15.8 µM [falling, single point]; for `CC(C)(C)NC(=O)c1ccc(COCC(F)(F)F)o1` it is 3.16 µM [falling, single point]; for `Cc1c(NC(=O)OCCNC(=O)COc2ccc(Cl)cc2Cl)sc(=S)n1C` it is 12.6 µM [rising, single point].
The figure for `Cc1ccccc1Cn1ccc(NC(=O)c2cc3nc(-c4ccco4)cc(C(F)(F)F)n3n2)n1` is 0.0251 µM [rising, full curve, poor fit]; for `C=CCOC(=O)C1=C(C)NC(SCC(=O)NC(=O)OCC)=C(C#N)C1c1cccnc1` (centres undefined) it is 0.0251 µM [rising, full curve, poor fit]; for `COc1ccc(NS(=O)(=O)c2cccc(C(=O)O)c2)cc1` it is 0.01 µM [rising, full curve].
On to `CC(=O)Nc1c(O)nc(SCC(=O)Nc2nnc(CC(C)C)s2)[nH]c1=O`, for which the concentration at half-maximal activity (AC50) is 31.6 µM [falling, single point].
